According to article PMC9422110:
No constants are given. Whether binding was seen depends on the method and setting. Binding seen in cells or lysates may run through a third protein. Some results given as binding are weak or reduced against the parent protein; the word gives no strength. Tags and fused reporters may be left off the sequences shown.

Molecular target: T1, LIKE HETEROCHROMATIN PROTEIN 1 (LHP1) fused to NYFP (Arabidopsis thaliana) (UniProt Q946J8)
T1 sequence: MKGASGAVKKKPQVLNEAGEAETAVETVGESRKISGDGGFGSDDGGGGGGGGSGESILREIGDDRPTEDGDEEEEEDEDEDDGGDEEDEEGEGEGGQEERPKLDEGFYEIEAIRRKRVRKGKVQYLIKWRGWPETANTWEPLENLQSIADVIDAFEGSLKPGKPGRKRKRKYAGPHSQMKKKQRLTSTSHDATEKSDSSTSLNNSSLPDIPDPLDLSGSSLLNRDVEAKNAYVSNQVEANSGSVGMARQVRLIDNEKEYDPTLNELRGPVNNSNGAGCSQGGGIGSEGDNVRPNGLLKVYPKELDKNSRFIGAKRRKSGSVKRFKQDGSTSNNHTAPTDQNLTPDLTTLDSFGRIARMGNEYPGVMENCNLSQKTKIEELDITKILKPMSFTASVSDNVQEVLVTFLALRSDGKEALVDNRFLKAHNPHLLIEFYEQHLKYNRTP
Test: split reporter; BiFC in transiently transformed Nicotiana benthamiana leaves; YFPC-VIM1 co-transformed with YFPN-LHP1, mCherry as membrane and nuclear marker; confocal microscopy 2 days after infiltration

B1: VARIANT IN …ON 1 (VIM1) fused to CYFP (protein, UniProt Q8VYZ0 1-645)
chain: MARDIQLPCDGDGVCMRCKSNPPPEESLTCGTCVTPWHVSCLSSPPKTLASTLQWHCPDCSGEIDPLPVSGGATGFESAGSDLVAAIRAIEADESLSTEEKAKMRQRLLSGKGVEEDDEEEKRKKKGKGKNPNLDVLSALGDNLMCSFCMQLPERPVTKPCGHNACLKCFEKWMGQGKRTCGKCRSIIPEKMAKNPRINSSLVAAIRLAKVSKSAAATTSKVFHFISNQDRPDKAFTTERAKKTGKANAASGKIYVTIPPDHFGPIPAENDPVRNQGLLVGESWEDRLECRQWGAHFPHVAGIAGQSTYGAQSVALSGGYKDDEDHGEWFLYTGSGGRDLSGNKRTNKEQSFDQKFEKSNAALKLSCKLGYPVRVVRSHKEKRSAYAPEEGVRYDGVYRIEKCWRKVGVQGSFKVCRYLFVRCDNEPAPWTSDENGDRPRPIPNIPELNMATDLFERKETPSWDFDEGEGCWKWMKPPPASKKSVNVLAPEERKNLRKAIKAAHSNTMRARLLKEFKCQICQQVLTLPVTTPCAHNFCKACLEAKFAGKTLVRERSTGGRTLRSRKNVLNCPCCPTDISDFLQNPQVNREVAEVIEKLKTQEEDTAELEDEDEGECSGTTPEEDSEQPKKRIKLDTDATVSATIR
  binding: binds
